Literature values as cited in patent US20090175838A1, “METHODS OF MODULATING IMMUNE FUNCTION” (priority 2007, published 2009).
At least one structure is not confirmed: it was looked up by name or label, or the drawing left a doubt.

Conditions: greater than cyclosporin; cited from earlier work

In the case of `C=CC[C@@H]1/C=C(\C)C[C@H](C)C[C@H](OC)[C@H]2O[C@@](O)(C(=O)C(=O)N3CCCC[C@H]3C(=O)O[C@H](/C(C)=C/[C@@H]3CC[C@@H](O)[C@H](OC)C3)[C@H](C)[C@@H](O)CC1=O)[C@H](C)C[C@@H]2OC` [FK506], the “immunosuppressive activity relative to cyclosporin” value is listed as 10-100 times.
